Laboratory results: a protein production outcome set (Wang et al. 2014)

test: label from the status in PepcDB records

Sequence | protein production
EGFIEALAEPAALAAADGRVLAANGPWREVMGEQRRLPKGVAGSSLFAALVQARQGQMAEGMLSAGGTDYTAKVSRLAGGRLMIRLAPIVVAEPVVEDASPAPVAERAAPPPSSLDAFAGASPFGAALLEGLEPFTSRVLETNPALTTMTGAKAGVLFGDLIDAASRAEAETRLNEGRAGPYEVRLARDPSRIAHLYLYRAEGRLVAYMIDVSEQKQIELQLSQAQKMQAIGQLAGGVAHDFNNLLTAI | failed
EVKPEINFVNVGERCNVAGSRKFLRLINEKKYDEALSIARKQVEDGALIIDVNMDDGLLDAKEEMTTFLNLVASEPEIARVPVMIDSSKWEVIEAGLKCLQGKSIVNSISLKEGEEKFLEHARTVRQYGAAVVVMAFDEKGQADTATRKIEVCERAYHLLVDKIGFNPHDIIFDPNVLAVATGIEEHNNYAVDFIEATAWIKKNLPGAHISGGVSNLSFSFRGNNYIREAMHAVFLYHAIQKGMDMGIVNPGTSVLYTDIPADVLERIEDVVLNRRSDAAERLIELADRLKEASAGNTSAGQP | not failed
FVNIGERCNVAGSRKFLRLVNEKKYDEALSIARQQVEDGALVIDVNMDDGLLDARTEMTTFLNLIMSEPEIARVPVMIDSSKWEVIEAGLKCLQGKSIVNSISLKEGEEVFLEHARIIKQYGAATVVMAFDEKGQADTAARKIEVCERAYRLLVDKVGFNPHDIIFDPNVLAVATGIEEHNNYAVDFIEATGWIRKNLPGAHVSGGVSNLSFSFRGNNYIREAMHAVFLYHAIQQGMDMGIVNPGTSVLYSDIPADTLEKIEDVVLNRRPDAAERLIELAEA | not failed
LRLSEERYHLAMDAVEDGLWDWYLDSEHIICNPSYYSMLGYKPNEFPALVSAIDQLTHPDDRIRVEEYRNQYLENPVDAYEIEFRILGKNSSYHWVLSRGRVVEFTTDGQPKRMVGTHKDITRHKSNEVALLEAKQDAELANLYKSEFLANMSHEIRTPMNAIIGML | failed
LVSLEQEVQEKYSQIQNQLQRRADLIPNLVETVKGYAAHEKEILEEIANARAKLIGAKTPQESAQADAELSSALSRLLAIAENYPNLKADANFRQLMDELAGTENRIAVARRDYNEAVKKYNTAIKKFPGVIFAKMFGFEEKQYFEAKPGAEEVPEVKF | not failed
MADMWILDDKDKKQTIISSEAKEACRFYDAPFREELNVGSSFSFVADADHEDSVHIKPENQVVFEDRRGRKRNFVIKELEDADDGANARIRAYCEPALSELYDEFVTDIRPQNRTAQYVLDRILEGTRWRANVPVDLGLHSTNFYRISVMEAINQILQIWGGEYYDEVVFDENDNIVDRVIHILPRRGQDTGKRAEIDKDIQEITRTVLSYPVTALYGYGASLETEGGGNTRYIDFSDVEWVKANGDPVDKPKGQEWVGDPDLLEKFGRIMYDGQTKRHRFQKWQDDSIEDPAELLRKTYEALINHEMVQVNYSLKLELLEYISGYEHEAVDLGDTMIAIDDNFRHPIEVQTRVIAIEYDLSDPVNTAQVEMGQFLDLYSTEKRIKELETTIDTNRGKWDNGGDPIIGDGSFPDKVPPVPSNIKVESLFQGVSITWDYNPSSYIAAYQIFASPNKGFTPLDENLIFSGKLSGYEHTPGVDQVWYYRMRTINTHGTPSPFTQEFTGVTRRILTDDIVFGAVTAEKLANLSVTAEKLSQKFDESNILPGSVLRPGELGNVNGASWSVKEGEFNEVTVTRKADDTRAGFGFSAFYRSTLRLTKGEKYTLSFEVKRNNTLNINFIYLKDDSGQYQLDAPDFNDISSFPSDEFVRVDYVFQSPITTETARLWLGGNKVGDENPSVTYRKIQIRKGDVRKEFAFSPYDVMLTEQAVSSALIAKAAIQSAHIQEAAITTAAIANGAITRAKLGTAIIGTAQIEDGAITNAKIANLSADKINAGTIKGITIEGSLIRGARIEPLSSSSAYESYIEANKIYQLRKTRYGGYQDRYEELDISSGSIIQDYGNRLDDDSHESLNKVEISKGKVALSSGKTFSTGTTSRMEIFSQLGTSDNGLYGGNFITMYRNDEKVFELRQDSWTDPDTNVIMPQMSIRAEKVDFVSFFEDVSVYSEKSIYHSAERSVALFSKDGPVTVYAKDGMKLNRGSNGEYTTSITADDALKIASKGTITLEDTEFNGASLYLGTDSRGPRIWSYSINKRTTTAAANLHMDQYGTFHKVTSSQKYKINIEEFPNDRVENILKLNPKTWFDKKAVEAYAEILESGQEDDENKPYFERIPGLIAEEVFEAGLKEFVFFGKPDENGNREIEGIMYDRLFALLIPIVRDLKTRIENIESTLN | failed
MAMMVENSYGGYGGGGGERIQLMVEGQGKAVPAPFLTKTYQLVDDPATDHVVSWGDDDTTFVVWRPPEFARDLLPNYFKHNNFSSFVRQLNTYGFRKIVPDRWEFANEFFKRGEKHLLCEIHRRKTSQMIPQQHSPFMSHHHAPPQIPFSGGSFFPLPPPRVTTPEEDHYWCDDSPPSRPRVIPQQIDTAAQVTALSEDNERLRRSNTVLMSELAHMKKLYNDIIYFVQNHVKPVAPSNNSSYLSSFLQKQQQQQPPTLDYYNTATVNATNLNALNSSPPTSQSSITVLEDDHTNHHDQSNMRKTKLFGVSLPSSKKRSHHFSDQTSKTRLVLDQSDLALNLMTASTR | failed
MASFDEAPPGNAKAGEKIFRTKCAQCHTVEAGAGHKQGPNLNGLFGRQSGTTAGYSYSAANKNKAVEWEEKALYDYLLNPKKYIPGTKMVFPGLKKPQDRADLIAYLKESTAPK | failed
MCGGAVISDYIAPEKIARSSGKSSWRSNGVFDCSIYDFDGNFDELESDEPFVFSSTHKHHASGSASDGKKKQSSRYKGIRRRPWGRWAAEIRDPIKGVRVWLGTFNTAEEAARAYDLEAKRIRGAKAKLNFPNESSGKRKAKAKTVQQVEENHEADLDVAVVSSAPSSSCLDFLWEENNPDTLLIDTQWLEDIIMGDANKKHEPNDSEEANNVDASLLSEELLAFENQTEYFSQMPFTEGNCDSSTSLSSLFDGGNDMGLWS | failed
MECKTKGKHQHSLNLLDKIKNMKELEEMIDVVLIAEEEKFPCHRLVLAAFSPYFKAMFTCGLLECTQREVILYDITAESVSVILNYMYSAVLEINYANVQTVAMAAYFMQMEEVFSVCQNYMMDHMDASNCIGIYYFAKQIGAEDLSDQSKKYLYQHFAEVSLHGEILDIEAHQLLALIKSDDLNISREESILDLVLRWVNHNQALRTEHLVELLKQVRLELINASFLRQALRRNTMLLCDGSCIDIIQNAFKAIKTPQQHPSNLRYGMETTSLLLCIGNNSSGIRSRHRSYGDASFCYDPVSHKTYFISSPKYGEGLGTVCTGVVMENNTVIVAGEATATRLSRQKSKNIEIYRCVSHSRFGIFCFVLLR | failed
MENPQDIFSSNGGCLSDIVIEKYLVESKESVSHVQLACSMQDCAFPLDGTELCIWNTKDPSHQLLILRGHHQPITAMAFGNKVNPLLICSASLDYVIMWNLDECREKVLQGLVPRGTVMGSLLGKVLCLQLSLDDHVVAVCAGNKIFMLDIEQRFSVTYIERPDVNNRHKVPPPTFLHTFSQTQAVRAELQGHLGPVTAVEFCPWRAGTLISASEDRGFKVWDHCTGSLIYSSSVLSAYPLLSLFIDAESRQLVTGCADGQLWIFSLMDGHHYRRVARVDLRKKTETFSTRRVKSGLCSQPEESQLPSTSALGKGEQVEVTFPVLRLAPCDLSLIPNSACGCLSSENTRCVWIGSSVGLFVFNLANLEVEAALYYKDFQSLSILLAGSCALRNRTADQKVLCLLASLFGGKIAVLEINPAALVRAQQCPSMGQSLSVPASSCVLPTSPLYLGIAKEKSTKAASEQRRAARNVMKDQRLVFHSKVRSSGYASAPHVTMFSPKTNIKSEGKGSSRSRSSCAREAYPVECAVPTKPGPQVAAAPTCTRVCCIQYSGDGQWLACGLANHLLLVFDASLTGTPAVFSGHDGAVNAVCWSQDRRWLLSAARDGTLRMWSARGAELALLLGKDMFSKPIQSAQFYYIDAFILLSSGPEFQLLRYHIDTCKDEIKRYKQKSKSKLICRLSTTGAVDMTSLSAVNDFYSHIVLAAGRNRTVEVFDLNAGCSAAVIAEAHSRPVHQICQNKGSSFTTQQPQAYNLFLTTAIGDGMRLWDLRTLRCERHFEGHPTRGYPCGIAFSPCGRFAACGAEDRHAYVYEMGSSTFSHRLAGHTDTVTGVAFNPSAPQVQSCSVAHAGVQWHDLGSLQPPPSRFKQFFCLSLPSSWDYSLPQLPWMVNSSSF | failed
MFGFKKAASKAEDAARMVRQLESVLDHADNLIMLCDTTRDNTIFYMNQTARDVLGRHREMMNQKFRAGVDVNRAHGHSIHQFHRDPEHNRRILADLASGKIPQHTAMIPVGEVMFETKVFPIWDSANPSQLLCFMASFQDVSSEIRAQKLQEQGNQRRDFLEARVNELSENMQAMSATIQNVAVQTASASESAELMLGEGRKGAGIVSETSSGMKNVGGMVRDTADSLESLGQRSETIGQIVNVIKDIADQTNLLALNAAIEAARAGEMGRGFAVVADEVRKLAERTTKATQEIGDMIRDIQNEVKQNVDAIERGRQQVDATENDFQRAEQALGIIVGEINNMRDFVVQIANAAEEQAATSQDIADKLAEIVRQS | failed
MFGLRTRNQEAESEYRRFIKGLSDSMAMIEFDTRGIILNANDLFLSCVGYTREAIVGKHHSIFCDRGYVQSPRYQQFWDDLKMGKHKRGTFERLTSQRERLVLEASYFPIESEHGQIEKVVKIASDVTQQRLESEQKEAILNALDLSLATIEFDREGYILTANQNFLKTLGYELSDVQGKHHKLFCFDDFYQENPGFWKDLAAGQFKSGQFLRRSASGDKVYIEATYNPIFDPAGNVIKVVKFASDITDKVQRDLNISQAIADSSFIARNASEEATSNVCGAEHSLNEFRTMIEEVLRAVTACDDKVQELFKTSQQVTEIVKVIDSIASQTNLLALNAAIEAARAGEHGRGFAVVADEVRTLATRTSTSIDEINHIVLSNQSLTTETRSFIEVINQGFLSSMSKLLEVDEFMKSIDEGSHLTVESISALRAIVNQDAHLHLNSASNG | failed
MGRRPGVDGGIRPDRPAAPHPRLHRPDGCTPGGGAGPGGRHLRWGGRWWRKRVKCAALFYPPGISAMPGTSVSDLSTATAVDAPALLPLPVARPSAPAVVRGKLYIKTHGCQMNEYDSAKMADVLAASEGLELTDNPEEADVVLVNTCSIREKAQEKVFSQLGRWKALKAGGKPVIIGVGGCVASQEGEAIVKRAPYVDLVFGPQTLHRLPELIRARRESGKSQVDISFPEIEKFDRLPEPRAEGPSAFVSIMEGCSKYCSFCVVPYTRGEEVSRPFEDVLVEVAQLAAQGVREINLLGQNVNAYRGAYGADAGDPAQYADLGLLIRTIAQIEGIGRIRFTTSHPLEFSDSLVDAYRDVPQLANYLHLPVQAGSDRILSAMKRGYTALEFKSRIRKLRAVRPDISISSDFIVGFPGETEADFEKTMKLIEDVGFDQSFSFVYSRRPGTPASDLQDDTPETVKQARLARLQAHISAHAASISQSMVGSVQRVLVEGPSRRDPNELTGKSENMRPVNFPGNPRLIGQFVDVLITEAMSNSLRGRIQLDDSAH | failed
